From paper PMC12485048
Results are given in words; binding and its absence hold for the method and conditions named. In cells and extracts the contact can be indirect. A yes stands for co-enrichment or nearness to the bait. Other partners may have been found. Sequences can lack the tags named with a protein.

The chains behind the UniProt entries cited, without tags or fusion partners.
UniProt P63087: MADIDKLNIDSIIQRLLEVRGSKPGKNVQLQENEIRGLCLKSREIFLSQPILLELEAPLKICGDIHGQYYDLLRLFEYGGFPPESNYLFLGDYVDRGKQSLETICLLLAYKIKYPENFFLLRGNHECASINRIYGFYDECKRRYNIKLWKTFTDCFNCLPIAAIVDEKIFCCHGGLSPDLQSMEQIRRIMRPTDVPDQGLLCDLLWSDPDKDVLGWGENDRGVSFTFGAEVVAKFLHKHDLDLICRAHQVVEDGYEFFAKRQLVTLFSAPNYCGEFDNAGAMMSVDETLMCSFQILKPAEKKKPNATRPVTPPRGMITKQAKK
UniProt P62715: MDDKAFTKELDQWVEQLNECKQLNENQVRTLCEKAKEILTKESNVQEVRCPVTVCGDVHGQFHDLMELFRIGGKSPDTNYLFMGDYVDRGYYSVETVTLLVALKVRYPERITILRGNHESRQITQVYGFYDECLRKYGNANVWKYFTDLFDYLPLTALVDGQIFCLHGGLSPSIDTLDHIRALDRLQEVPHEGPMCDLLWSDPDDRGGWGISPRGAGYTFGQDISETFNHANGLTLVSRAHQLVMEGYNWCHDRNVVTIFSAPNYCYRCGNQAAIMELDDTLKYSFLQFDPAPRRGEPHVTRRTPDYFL

Biological target: T1, SH3RF2-3× flag (mouse (endogenous in striatum of knock-in mice)) (UniProt Q8BZT2)
T1 sequence: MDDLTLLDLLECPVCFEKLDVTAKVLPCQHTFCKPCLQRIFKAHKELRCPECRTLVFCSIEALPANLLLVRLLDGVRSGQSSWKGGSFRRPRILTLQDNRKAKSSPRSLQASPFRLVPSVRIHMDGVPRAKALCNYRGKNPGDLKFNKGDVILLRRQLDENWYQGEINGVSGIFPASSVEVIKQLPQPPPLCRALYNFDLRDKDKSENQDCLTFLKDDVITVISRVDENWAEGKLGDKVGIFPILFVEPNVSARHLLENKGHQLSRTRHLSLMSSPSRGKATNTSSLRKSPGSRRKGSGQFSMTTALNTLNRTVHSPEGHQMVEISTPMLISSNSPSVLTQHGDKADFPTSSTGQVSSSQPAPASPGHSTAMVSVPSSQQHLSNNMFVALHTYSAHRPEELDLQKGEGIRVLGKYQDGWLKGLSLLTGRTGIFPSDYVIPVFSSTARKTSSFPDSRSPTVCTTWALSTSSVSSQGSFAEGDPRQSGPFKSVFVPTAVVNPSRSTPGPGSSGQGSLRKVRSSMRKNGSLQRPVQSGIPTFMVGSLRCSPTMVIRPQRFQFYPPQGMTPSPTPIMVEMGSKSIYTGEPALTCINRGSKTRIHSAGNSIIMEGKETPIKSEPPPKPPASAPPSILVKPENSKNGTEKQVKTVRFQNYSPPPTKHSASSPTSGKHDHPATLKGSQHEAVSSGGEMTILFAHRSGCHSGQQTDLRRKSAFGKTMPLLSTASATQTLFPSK
Experiment: affinity purification with mass spectrometry; striatal tissue of P42 Sh3rf2-3× flag male mice against WT littermates; 200 μg of proteins with 20 μL Anti-FLAG M2 affinity gel at 4 °C overnight; SDS-PAGE, in-gel trypsin digest, LTQ Orbitrap Elite; hits unique to the knock-in or with PSM fold change ≥ 2

| binding | Substance |
| --- | --- |
| binds | PP1 catalytic subunit gamma (PPP1CC) (from UniProt P63087 1-323) (enzyme) |
| binds | PPP2CB (PP2A) (from UniProt P62715 1-309) (enzyme) |
| binds | PKC (mouse (endogenous in striatum)) (enzyme) |
